PubChem BioAssay AID743121 | NCATS, 2013
Here is an unselected part of about 26,000 reagents. Over the whole deposit, 167 (0.63%) got an active call. 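Calls are per gene from RSA p-values that are not deposited; an individual active-marked siRNA can sensitise only weakly.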 Reagents against one gene are numbered here. Further read-outs or replicates are left out here.

Screen: 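Partners whose loss is lethal together with topoisomerase I blockade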 (primary screen)
System: MDA-MB-231 cells, a human breast cancer line
Knock-down reagent: single siRNA against human genes, 20 nM siRNA (0.8 pmol per well)
Timing: 120 h (drug added 48 h after transfection, read 72 h later)
Conditions: camptothecin 20 nM (about EC30) for 72 h; vehicle 0.1% DMSO in parallel plates
Detection: 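CellTiter-Glo ATP signal, scaled to control siRNA as percent viability; sensitisation given as log2 of untreated divided by camptothecin-treated viability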
Scale: log2 vehicle/camptothecin viability: higher = stronger sensitisation to camptothecin; viability with camptothecin: higher = more viable cells
Hit rule: 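Active genes have an RSA gene-level p-value below 0.001, computed from the ratios of their separate siRNAs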

gene	reagent	log2 vehicle/camptothecin viability	viability with camptothecin (% of control)	Outcome
ASB2	1	-0.697	112	inactive
ASB2	2	-0.274	108	inactive
ASB2	3	-0.391	68.3	inactive
ASB2	4	0.0271	75.9	inactive
IVD	1	-0.0576	91.6	inactive
IVD	2	-0.289	73.5	inactive
IVD	3	-0.369	86.2	inactive
IVD	4	-0.603	74.2	inactive
GNG2	1	0.559	66.3	inactive
GNG2	2	-0.681	85.1	inactive
GNG2	3	-0.469	98.6	inactive
GNG2	4	-0.183	71.8	inactive
IFNA16	1	0.0647	33.5	inactive
IFNA16	2	-0.0841	118	inactive
IFNA16	3	0.102	37.2	inactive
IFNA16	4	-0.1	105	inactive

3 of these entries in another layout.
{"gene": "ASB2", "reagent": 1, "log2 vehicle/camptothecin viability": -0.697, "viability with camptothecin (% of control)": 112, "Outcome": "inactive"}
{"gene": "ASB2", "reagent": 2, "log2 vehicle/camptothecin viability": -0.274, "viability with camptothecin (% of control)": 108, "Outcome": "inactive"}
{"gene": "ASB2", "reagent": 3, "log2 vehicle/camptothecin viability": -0.391, "viability with camptothecin (% of control)": 68.3, "Outcome": "inactive"}

More entries follow.
gene	reagent	log2 vehicle/camptothecin viability	viability with camptothecin (% of control)	Outcome
CDK8	1	0.261	26.7	inactive
CDK8	2	-0.422	62.1	inactive
CDK8	3	0.0639	64.9	inactive
CDK8	4	-0.415	78.1	inactive
ABCB11	1	-0.473	112	inactive
ABCB11	2	-0.00272	60.7	inactive
ABCB11	3	-0.38	117	inactive
ABCB11	4	0.0569	89.9	inactive
TUSC3	1	-0.184	105	inactive
TUSC3	2	-0.543	105	inactive
TUSC3	3	-0.235	96.6	inactive
TUSC3	4	-0.198	84.1	inactive
VIPR2	1	-0.0532	47.9	inactive
VIPR2	2	-0.0786	57.1	inactive
VIPR2	3	-0.0973	87.1	inactive
VIPR2	4	-0.0761	63.8	inactive
TNXB	1	-0.0626	88.3	inactive
TNXB	2	-0.433	51.8	inactive
TNXB	3	0.192	93.1	inactive
TNXB	4	-0.169	61.6	inactive
IGSF10	1	-0.0972	73.7	inactive
IGSF10	2	-0.409	92.3	inactive
IGSF10	3	-0.348	59.3	inactive
IGSF10	4	-0.197	63.4	inactive
RSPH14	1	-0.439	64.1	inactive
RSPH14	2	-0.111	109	inactive
RSPH14	3	-0.241	66.1	inactive
RSPH14	4	-0.143	106	inactive
SLC26A3	1	0.622	44.6	inactive
SLC26A3	2	-0.0639	101	inactive
SLC26A3	3	-0.15	72.6	inactive
SLC26A3	4	-0.159	102	inactive
